According to article PMC7815748:
Results are given in words; binding and its absence hold for the method and conditions named. Binding seen in cells or lysates may run through a third protein. Some entries that bind do so weakly or less than the wild type.

Amino acid sequences for entries named in this document (tags omitted).
UniProt O75874: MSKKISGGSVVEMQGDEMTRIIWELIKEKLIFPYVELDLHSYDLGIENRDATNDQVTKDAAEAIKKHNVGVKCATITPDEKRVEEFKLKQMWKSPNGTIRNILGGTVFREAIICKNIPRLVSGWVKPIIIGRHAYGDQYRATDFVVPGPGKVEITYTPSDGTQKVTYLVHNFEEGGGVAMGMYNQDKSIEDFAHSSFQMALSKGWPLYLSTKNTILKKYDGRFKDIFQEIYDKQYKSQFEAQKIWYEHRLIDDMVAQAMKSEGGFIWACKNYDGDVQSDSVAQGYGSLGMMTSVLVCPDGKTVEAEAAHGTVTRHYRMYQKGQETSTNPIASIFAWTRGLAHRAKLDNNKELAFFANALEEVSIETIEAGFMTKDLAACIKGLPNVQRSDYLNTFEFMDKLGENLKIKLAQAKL

Tests used:
[1] = target: activator of HSP90 ATPase activity 1 (AHA1) (human (endogenous in human cell lines; line not named for the co-IP)) (UniProt O95433); assay: co-IP; endogenous proteins; cleared cell lysates (1% Nonidet P-40, 150 mM NaCl, 100 mM HEPES) incubated with Protein G- or Protein A-Sepharose and the appropriate antibody (anti-AHA1 or anti-IDH1; control IgG) overnight at 4 °C; washed three times; western blot
[2] = target: isocitrate dehydrogenase 1 (IDH1) (human (endogenous in human cell lines; line not named for the co-IP)) (UniProt O75874); assay: as above

binding [1]	binding [2]	Substance
binds	–	Heat-shock protein 90 alpha (Hsp90α) (from UniProt P07900 1-732)
–	binds	activator of HSP90 ATPase activity 1 (AHA1) (from UniProt O95433 1-338)
binds	–	isocitrate dehydrogenase 1 (IDH1) (from UniProt O75874 1-414) (enzyme)
